Source: PubChem BioAssay AID1259291 (Sanger Institute, 2017)

- Assay: 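Genes needed for HT29 colorectal cancer cell survival or for sensitivity to drugs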 (primary screen)
- Cells: HT29 human colorectal cancer cells
- Knock-down reagent: siRNA pool against human genes
- Challenge: anchor drugs added a day after transfection: BYL719 at 1 µM, cetuximab at 5 µg/ml or trametinib at 10 nM, or DMSO vehicle alone
- Read-out: 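Cell viability as a fraction of the non-targeting pool, mean of replicates, robust z-scores from control wells; synergy scores for BYL719 (1 µM), cetuximab (5 µg/ml), trametinib (10 nM)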
- Scale: robust z-score, knock-down alone: higher = more viable cells
- Hit rule: 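Essential when the robust z-score for knock-down without any drug is below -3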
- Calls: active = essential (knock-down alone); inactive = no change alone
In all, the deposit lists 794 reagents; below is a part drawn at random. Of all reagents, 15 (1.9%) got an active call. 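Calls rest on knock-down alone; drug synergy scores do not affect them; drugs added a day post-transfection, DMSO vehicle as comparison.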 A number with no mark means an inactive call. Not all columns of the deposit are shown. Not given: the amount of reagent, the time to read-out.

The first 2 records, ahead of the listing:
CDK20 — robust z-score, knock-down alone: -0.381
PAK2 — robust z-score, knock-down alone: 0.552

The listing, from the start:
CDK20 — robust z-score, knock-down alone: -0.381
PAK2 — robust z-score, knock-down alone: 0.552
DLG2 — robust z-score, knock-down alone: 0.552
MKNK1 — robust z-score, knock-down alone: 0.301
CDK5 — robust z-score, knock-down alone: 0.552
ROCK2 — robust z-score, knock-down alone: 0.194
KALRN — robust z-score, knock-down alone: -3.02 (active)
EPHB2 — robust z-score, knock-down alone: 0.552
CLSPN — robust z-score, knock-down alone: 0.552
CDKL4 — robust z-score, knock-down alone: 0.552
TTBK2 — robust z-score, knock-down alone: 0.552
TRPM6 — robust z-score, knock-down alone: 0.552
TEK — robust z-score, knock-down alone: 0.552
MTOR — robust z-score, knock-down alone: 0.552
CAMK2A — robust z-score, knock-down alone: 0.552
CDC7 — robust z-score, knock-down alone: 0.552
EIF2AK1 — robust z-score, knock-down alone: 0.552
PKN3 — robust z-score, knock-down alone: -0.88
MAP3K2 — robust z-score, knock-down alone: 0.552
CIT — robust z-score, knock-down alone: -0.0756
NEK4 — robust z-score, knock-down alone: 0.0705
NUP62 — robust z-score, knock-down alone: 0.552
DGKD — robust z-score, knock-down alone: 0.277
CSNK1G3 — robust z-score, knock-down alone: 0.552
SOX9 — robust z-score, knock-down alone: 0.552
DYRK4 — robust z-score, knock-down alone: 0.552
FLT3 — robust z-score, knock-down alone: -0.287
ROR1 — robust z-score, knock-down alone: 0.552
DGKQ — robust z-score, knock-down alone: 0.105
GNE — robust z-score, knock-down alone: -0.586
IPMK — robust z-score, knock-down alone: 0.552
BUB1 — robust z-score, knock-down alone: -0.264
TBCK — robust z-score, knock-down alone: 0.552
HIPK1 — robust z-score, knock-down alone: 0.552
MAP4K2 — robust z-score, knock-down alone: 0.552
MAGI3 — robust z-score, knock-down alone: 0.552
